Values of other authors, collected in US20240325371A1, “USE OF EZH2 INHIBITOR IN PREPARATION OF DRUG FOR TREATING T-CELL LYMPHOMA” (JIANGSU HENGRUI MEDICINE CO., LTD., priority 2021, published 2024).
Some of these results come from one statement about several compounds together. At least one compound was matched to its structure with a doubt left.

Tested on: PTCL
Conditions: treatment of rrPTCL in China; joint range for both approved drugs; cited from earlier work

## Nc1cc(F)ccc1NC(=O)c1ccc(CNC(=O)/C=C/c2cccnc2)cc1 [chidamide]
  ORR: 27-52%
  PFS: 2.1-4.8 months
